Experimental data from PMC12040169 (PLOS Biology, 2025).
This is one part of the list.

The molecules below were run on T1, CTL2-GFP (C. trachomatis L2/434/Bu, GFP-expressing). Details: bulk GFP, single well; 28.5 h, 10 µM; inhibitor.
T1 construct: L2/434/Bu, GFP-expressing
Set-up: species or system HeLa; Intracellular C. trachomatis growth in HeLa cells, bulk GFP fluorescence relative to DMSO

| SMILES | % of control remaining |
| --- | --- |
| COc1ccc(C(NC(=O)NNC(=O)Cc2ccc(Cl)cc2)c2ccccc2C)cn1 (stereo not drawn) [CBK083660] | 82.1117% |
| NCCCNC(=O)c1ccc(-c2cccc(C(F)(F)F)c2)o1 [CBK107454] | 100% |
| CC(=O)Nc1ccc(S(=O)(=O)N2CCN(C(=O)COc3ccc(C)cc3)CC2)cc1 [CBK264268] | 124.937% |
| CC(=O)N[C@H](Cc1c[nH]c2ccccc12)C(=O)N1CC[C@H]2NC(=O)[C@H](Cc3ccccc3)NC(=O)C3(C/C=C/C[C@H]2C1)CCOCC3 [CBK292205] | 106.577% |
| COc1ccc(CN2CCN(c3nccnc3OC)CC2)cc1 [CBK084216] | 105.715% |
| c1csc(CNc2c(-c3cccs3)nc3cnccn23)c1 [CBK283685] | 154.077% |
| Cc1ccc(Cl)cc1NC(=O)C1CC(=O)N(Cc2ccccn2)C1 (stereo not drawn) [CBK305561] | 113.603% |
| COCCNc1nccnc1-c1cccc(C(F)(F)F)c1 [CBK037330] | 101.372% |
| CC(C)NC(=O)[C@H]1O[C@H](CCN2CCOCC2)CC[C@@H]1O [CBK288720] | 125.068% |
| CC1(C)C(N(O)C(=O)Nc2cccc3ccccc23)N(c2cccc3ccccc23)C(=O)N1CC(=O)NN (stereo not drawn) [CBK261004] | 105.145% |
| COC(=O)[C@H]1CN(C(=O)c2cccs2)C[C@@H]1c1ccc(F)cc1 [CBK283732] | 118.632% |
| Cc1noc(C)c1NC(=O)c1cc2ccccc2n1C [CBK200311] | 171.482% |
| Cc1cccc(OCCCn2cncc2-c2cn(C)nc2C)c1 [CBK281766] | 146.62% |
| CCOC(=O)N/N=C(/C)C(C)(C)C [CBK016460] | 131.728% |
| CCOc1cc(C(=S)N2CCCCC2)ccc1OC(=O)c1ccccc1Cl [CBK019660] | 108.143% |
| Cc1cc(CN(C)c2nccc(N3CCN[C@H]4CS(=O)(=O)C[C@H]43)n2)no1 [CBK306580] | 110.785% |
| COc1ccc(NC(=O)c2ccc(CN3CCOCC3)cc2)c(OC)c1 [CBK263790] | 100% |
| COc1ccc2c(c1)C1(CC(=O)N(CC3CCCCC3)C1=O)C(=O)N2C (stereo not drawn) [CBK075201] | 119.121% |
| CSc1nnc(C2CCCN2C(=O)[C@@H]2C[C@@H]3C=C[C@H]2C3)n1C (stereo partly drawn) [CBK282012] | 168.559% |
| O=C(NCn1nnc2ccccc21)c1ccccc1 [CBK056950] | 115.846% |
| Clc1cccc(-c2cc(NCc3cccs3)n3nccc3n2)c1 [CBK037238] | 135.873% |
| O=C1NC2(CCCCC2)C(=O)N1Cc1cnn(-c2ccccc2)n1 [CBK305570] | 86.5384% |
| Cn1cnnc1CNC(=O)N1CCN(Cc2cccs2)CC1 [CBK305045] | 123.003% |
| CN(Cc1nc(-c2ccccc2)no1)C(=O)COCC1CCCCO1 (stereo not drawn) [CBK307643] | 94.1941% |
| O=C(O)c1ccc(NC(=S)NC(NC(=O)c2ccco2)C(Cl)(Cl)Cl)cc1 (stereo not drawn) [CBK261025] | 102.97% |
| Cc1cccc2cc(/C=C(\C#N)c3nc(-c4cc5ccccc5oc4=O)cs3)c(Cl)nc12 [CBK261642] | 100% |

| SMILES | % of control remaining |
| --- | --- |
| COc1cccc(NC(=O)N2CCC(n3c(=O)n(C(=O)Nc4cccc(OC)c4)c4ccccc43)CC2)c1 [CBK149177] | 100% |
| CC(=O)Nc1cccc(C(C)NC(=O)N(C)C2CCc3ccccc32)c1 (stereo not drawn) [CBK306251] | 104.751% |
| COC(=O)c1sc(NC(=O)C2CC2)c(C#N)c1C [CBK026049] | 122.602% |
| COc1ccc(-c2noc([C@@H]3C[C@@H](O)CN3C3CCOCC3)n2)cc1 [CBK288844] | 123.865% |
| NS(=O)(=O)c1ccc(CCNC(=O)/C=C/c2ccccc2[N+](=O)[O-])cc1 [CBK265709] | 127.821% |
| Cc1ccc(CN(CCCn2ccnc2)Cc2ccccc2O)o1 [CBK283189] | 95.8652% |
| CNCCCC1(c2ccccc2)SC(C)(C)c2ccccc21 (stereo not drawn) [CBK015933C] | 75.6716% |
| COc1ccc(C)cc1NC(=O)CN(c1ccc(F)cc1)S(=O)(=O)c1ccc(C)cc1 [CBK264122] | 95.2055% |
| CCOC(=O)c1c(NC(=O)C2CCCN2S(=O)(=O)c2ccccc2)sc2c1CCCC2 (stereo not drawn) [CBK265012] | 93.9165% |
| O=C(NC(c1ccccc1)c1ccco1)C1CCN(CCN2C(=O)c3ccccc3C2=O)CC1 (stereo not drawn) [CBK148297] | 95.0785% |
| O=C(NC1CCCc2c1cnn2Cc1ccccc1)c1ccncc1 (stereo not drawn) [CBK282250] | 125.929% |
| CC1(C)NC(=O)N(CC(O)COc2ccc([N+](=O)[O-])cc2)C1=O (stereo not drawn) [CBK262840] | 106.129% |
| CCN1C(=O)CC2(C1=O)C(=O)N(CCCOc1ccccc1)c1ccc(OC)cc12 (stereo not drawn) [CBK075585] | 113.688% |
| CCOC(=O)c1cnn2c(O)cc(CN3CCc4ccccc4C3)nc12 [CBK305679] | 112.626% |
| Cc1ccccc1-c1ccc(C(=O)N(C)CCN(C)C)c(N(C)C)n1 [CBK106090] | 158.81% |
| COc1ccc(NC(=O)CSc2nc(N)n[nH]2)cc1Cl [CBK268065] | 102.8% |
| CC(C)(C)OC(=O)NCCCn1cc(C(=O)O)nn1 [CBK287028] | 124.144% |
| O=S(=O)(Nc1ncc(Br)c2cccnc12)c1ccc(Oc2ccccc2)cc1 [CBK073886] | 98.6713% |
| O=S1(=O)CCN(Cc2ccc3c(c2)OCCCO3)CC1 [CBK074831] | 108.544% |
| O=C(O)C1CCN(c2cncc(-c3ccc4ccccc4c3)n2)CC1 [CBK065801] | 136.893% |
| O=S(=O)(Cc1csc(N2CCOCC2)n1)c1ccccn1 [CBK011137] | 131.529% |
| Cc1ccccc1Sc1ccc(C(F)(F)F)cn1 [CBK115237] | 101.876% |
| COC(=O)c1cn([C@H]2CO[C@H]3[C@@H]2OC[C@@H]3NC(=O)NC2CCCCC2)nn1 [CBK289499] | 137.824% |
| CSc1ncc(Cl)c(C(=O)Nc2nc(-c3ccc(S(=O)(=O)N4CCCCCC4)cc3)cs2)n1 [CBK268785] | 140.754% |
| Cc1ccccc1C(=O)N1CCC(O)(Cn2ccnc2C)CC1 [CBK284950] | 136.82% |
| CCOC(=O)COc1cccc(/C=C2/SC(=S)N(c3cccc(C(=O)O)c3)C2=O)c1 [CBK265589] | 107.563% |

Quoted from the listing.
O=C(O)c1ccc(NC(=S)NC(NC(=O)c2ccco2)C(Cl)(Cl)Cl)cc1 (stereo not drawn) [CBK261025] | % of control remaining: 102.97%
Clc1cccc(-c2cc(NCc3cccs3)n3nccc3n2)c1 [CBK037238] | % of control remaining: 135.873%
Cn1cnnc1CNC(=O)N1CCN(Cc2cccs2)CC1 [CBK305045] | % of control remaining: 123.003%

(list continues)

| SMILES | % of control remaining |
| --- | --- |
| Cc1n[nH]c(NCc2cccc(Cl)c2Cl)n1 [CBK288037] | 122.58% |
| COC(C)(C)C(=O)N1CCCC(c2ccc(Cc3cccc(C(F)(F)F)c3)cn2)C1 (stereo not drawn) [CBK286124] | 121.875% |
| COc1ccc2[nH]cc(CCNC(=O)c3ccc(NC(C)=O)cc3)c2c1 [CBK269296] | 114.116% |
| CN(C)c1nc(N)nc(COc2ccccc2F)n1 [CBK288236] | 105.619% |
| Cc1ccn(-c2ccc(N3CCC4(CC3)OCCO4)nn2)n1 [CBK305263] | 134.57% |
| O=C(Nc1cccc(C(F)(F)F)c1)N[C@H]1CO[C@H]2[C@@H]1OC[C@H]2O [CBK289476] | 117.826% |
| COCCN(Cc1cnn(C)c1)C(=O)Cc1ccc(Cl)cc1 [CBK307407] | 90.3493% |
| CC(C)OC(=O)c1cc2c(ccn2-c2ccc(F)cc2)n1CCC#N [CBK123921] | 80.7452% |
| Cn1nc(C2CCCN(C(=O)C3CC3)C2)c2cccnc21 (stereo not drawn) [CBK282654] | 102.909% |
| N=C1NC(=O)C(CC(=O)Nc2cccc([N+](=O)[O-])c2)S1 (stereo not drawn) [CBK263944] | 100% |
| O=C(O)COCc1nn(-c2ccc(Br)cc2)c2c1CCCC2 [CBK016404] | 118.647% |
| Cc1ccc(-c2ccc(CCC(=O)O)n2NC(=O)c2ccc([N+](=O)[O-])cc2)cc1 [CBK264776] | 120.587% |
| Cc1nn(C)cc1S(=O)(=O)N1CCCC(c2cccc(Cc3ccccc3Cl)n2)C1 (stereo not drawn) [CBK286127] | 98.086% |
| CN(Cc1cc(Br)cs1)C(=O)CCN1C(=O)COc2ccccc21 [CBK298308] | 114.464% |
| COc1ccc(OCc2nnn[nH]2)cc1 [CBK270000] | 128.557% |
| CN(C)CCN1C(=O)C(O)=C(C(=O)c2ccco2)C1c1ccc([N+](=O)[O-])cc1 (stereo not drawn) [CBK264486] | 78.2622% |
| COc1ccccc1-c1ccccc1CC1(C(=O)NCc2cccc(F)c2)CCOCC1 [CBK286426] | 70.76% |
| O=C1CC(C(=O)Nc2ccccc2)n2cnnc2N1 (stereo not drawn) [CBK287980] | 105.163% |
| O=C1N=C(NC2CCCCCC2)SC1Cc1ccc(O)cc1 (stereo not drawn) [CBK067868] | 104.308% |
| c1ccc(-c2nc3ccc(Cc4ccc5nc(-c6ccccn6)c(-c6ccccn6)nc5c4)cc3nc2-c2ccccn2)nc1 [CBK261975] | 115.726% |
| COc1ccc(OCC(=O)N/N=C\c2c(OC)ccc3ccccc23)c(Br)c1 [CBK261235] | 123.712% |
| CC1(C)OCc2nc(C(O)C(C)(C)C)ccc2O1 (stereo not drawn) [CBK005386] | 156.063% |
| CC(=O)Nc1ccc(S(=O)(=O)NCCCc2ccccc2)cc1 [CBK265488] | 100% |
| O=C(Nc1nccs1)c1cccc(Cl)c1Cl [CBK058011] | 135.49% |
| Cc1nccn1CC1(O)CCN(Cc2c[nH]c3ccccc23)CC1 [CBK282671] | 106.894% |
| CC1CCCCN1CC(=O)Nc1ccccc1Oc1ccccc1 (stereo not drawn) [CBK023182C] | 151.957% |
